Data: PubChem BioAssay AID1347076 (National Center for Advancing Translational Sciences (NCATS), 2019)
About 13,000 (3.2%) of roughly 400,000 compounds were called active. Inconclusive means that the source gave no clear call. Such entries were picked first, then a sample of the others. Calls come from the whole dose curve; as a rule, active = well fitted cell-killing curve with a large enough effect; inconclusive = small, poorly fitted or top-dose-only effect, or effect the other way; inactive = flat fitted curve, though single readings scatter. A potency beside an inconclusive call is a rough fit, not a confirmed value. More than one record can exist for a structure, and the calls need not agree.

Test: qHTS assay for MDR1-selective chemotherapeutics: Primary screen using the drug-selected MDR subline cells KB-V1; note: nearly all actives have a fitted effect of over 60% in size
Details: KB-V1 MDR cells viability, CellTiter-Glo, 72 h; activity change, negative = cytotoxicity: at 46.1 µM (top of the series)
Outline: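 Following 72 h at 37 degrees C with compound, KB-V1 cell viability was read by CellTiter-Glo luminescence, medium being phenol-red-free DMEM plus 10% FBS; concentration-response parameters came from normalized, curve-fitted qHTS data.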
% is set by controls: 0 for no effect and ±100 for the full control effect; potency is the fitted concentration of half-maximal effect.

For Cc1ccc(S(=O)(=O)c2cc3c(=O)n4ccccc4nc3n(Cc3ccco3)c2=N)cc1, which Potency is on record?
Its Potency is active: 8.2 µM.

With COc1ccccc1C1CC(c2ccccc2)Nc2ncnn21 (centres undefined) as the compound, how does the Potency read?
Its Potency is inconclusive: 29.1 µM [cytotoxic, single point].

For O=C(COc1ccccc1Br)NCCc1nc2ccccc2[nH]1, which Potency is on record?
Its Potency is active: 14.6 µM.

With O=c1c2c3c(sc2nc2n1CCCC2)CCC3 as the compound, how does the Potency read?
The Potency was “inactive”.

For CCN(CC)CCCNC(=O)c1cc2c(-c3ccc(Cl)cc3)nn(C)c2s1, which Potency is on record?
The Potency was inconclusive: 29.1 µM [cytotoxic, single point].

Which Potency does the source give for COc1ccc(NC(=O)CCCN(C)S(=O)(=O)c2ccc(C)cc2)cc1 here?
Its Potency is inconclusive: 23.1 µM [cytotoxic, partial curve, poor fit].

With COc1ccc(-n2c(SCC(=O)Nc3nccs3)nnc2-c2ccccc2)cc1 as the compound, how does the Potency read?
The Potency was inconclusive: 14.6 µM [cytotoxic, partial curve].

With COc1ccc(NC(=O)COC(=O)CCOc2ccccc2C)cc1Cl as the compound, how does the Potency read?
Its Potency is inconclusive: 29.1 µM [rising, single point].

Which Potency does the source give for C/C(=N\Nc1ccc(Cl)c(C(=O)O)c1)c1ccc2c(c1)OCO2 here?
The Potency was inconclusive: 14.6 µM [rising, partial curve, poor fit].

Which Potency does the source give for CCCCCc1c(C)nc(N2CCc3ccccc32)[nH]c1=O here?
The Potency was active: 3.26 µM.

Which Potency does the source give for CC1(C)CC(=O)C(C=NCCN2CCNCC2)=C(O)C1 here?
The Potency was inconclusive: 23.1 µM [rising, single point].

For CNC(=O)N(O)C1N(/N=C/c2ccccc2OC)C(=S)SC1(C)C (centres undefined), which Potency is on record?
Its Potency is “inactive”.

For CCCCc1ccc(S(=O)(=O)NNC(=S)NCc2ccco2)cc1, which Potency is on record?
Its Potency is “inactive”.

For COc1ccccc1N1CCN(Cc2c[nH]c3ccccc23)CC1, which Potency is on record?
The Potency was inconclusive: 23.1 µM [cytotoxic, single point].

For CCN(CC)S(=O)(=O)c1cccc(NC(=O)COc2ccc(C#N)cc2OC)c1, which Potency is on record?
The Potency was inconclusive: 7.31 µM [cytotoxic, partial curve].

With COc1ccccc1NC(=O)CSc1nc2ncccc2[nH]1 as the compound, how does the Potency read?
Its Potency is “inactive”.

Which Potency does the source give for Clc1ccc(C2=Nn3c(Cn4nnc5ccccc54)nnc3SC2)cc1 here?
The Potency was inconclusive: 18.4 µM [cytotoxic, single point].

For O=C(NCCS(=O)(=O)NCCc1ccccc1)c1ccccc1, which Potency is on record?
The Potency was active: 16.4 µM.

For CC(=O)N1c2ccc(S(=O)(=O)N3CCC(C(=O)N4CCN(c5cc(Cl)ccc5C)CC4)CC3)cc2CC1C (centres undefined), which Potency is on record?
Its Potency is “inactive”.

With CC(C)Cn1nc(C(=O)OCC(=O)NCC(F)(F)F)c2ccccc2c1=O as the compound, how does the Potency read?
Its Potency is “inactive”.

For CC12CCC(C3NC(=S)NN=C31)C2(C)C (centres undefined), which Potency is on record?
Its Potency is “inactive”.

With O=C(CSc1nc2c(c(=O)[nH]1)CCCC2)Nc1ccc(Br)cc1 as the compound, how does the Potency read?
The Potency was “inactive”.

Which Potency does the source give for O=C(Nc1cc(Sc2nc3ccccc3s2)cc([N+](=O)[O-])c1)c1ccccc1F here?
Its Potency is inconclusive: 18.4 µM [cytotoxic, single point].

Which Potency does the source give for CCC(=O)NC(=S)NNC(=O)c1ccc(OC)cc1 here?
The Potency was inconclusive: 3.26 µM [cytotoxic, full curve].

With CCc1nnc(NS(=O)(=O)c2ccc(NC(=O)c3cccc(OC)c3)cc2)s1 as the compound, how does the Potency read?
The Potency was inconclusive: 1.03 µM [rising, single point].

Which Potency does the source give for Nc1ncc(Br)cc1S(=O)(=O)Nc1ccccc1F here?
Its Potency is “inactive”.

Which Potency does the source give for COc1ccc(N2CCN(C(=O)COC(=O)CCS(=O)(=O)c3ccc(C)cc3)CC2)cc1 here?
Its Potency is inconclusive: 29.1 µM [rising, partial curve, poor fit].

With Cc1ccc(NC(=S)Nc2ccc(S(=O)(=O)Nc3ncccn3)cc2)c(C)c1 as the compound, how does the activity change, negative = cytotoxicity read?
Its activity change, negative = cytotoxicity is inconclusive: 1.71%.

Which Potency does the source give for Cc1ccc(C)c(N2CCN(c3nc4ccccc4n4c(C)nnc34)CC2)c1 here?
Its Potency is inconclusive: 1.16 µM [cytotoxic, full curve, poor fit].

For CCOc1ccc(S(=O)(=O)NCc2ccccc2Cl)cc1C(N)=O, which Potency is on record?
Its Potency is inconclusive: 25.9 µM [cytotoxic, single point].

For CCCS(=O)(=O)NC(=O)C1(C)CCN(C(=O)c2ccc(F)c(C)c2)C1 (centres undefined), which Potency is on record?
Its Potency is “inactive”.

With O=C(NCc1cccc(C(F)(F)F)c1)N1CCN(S(=O)(=O)c2ccccc2F)CC1 as the compound, how does the Potency read?
The Potency was inconclusive: 23.1 µM [cytotoxic, single point].

Which Potency does the source give for COc1ccc(CCNC(=O)C(C(=O)c2ccccc2)n2ccccc2=O)cc1OC (centres undefined) here?
The Potency was inconclusive: 18.4 µM [cytotoxic, partial curve].

Which Potency does the source give for CCCC(C(=O)OCCN(CC)CC)(c1ccccc1)c1ccccc1 here?
Its Potency is inconclusive: 5.17 µM [cytotoxic, full curve].

For CCc1noc(C)c1C(=O)OCC(=O)N1CCc2ccccc21, which Potency is on record?
Its Potency is “inactive”.

With COc1ccc(CCNC(=O)CCNC(=O)N2CC(=O)Nc3ccccc32)cc1 as the compound, how does the Potency read?
The Potency was “inactive”.

With COc1ccccc1C(=O)OCc1cc(=O)n2ccsc2n1 as the compound, how does the Potency read?
Its Potency is inconclusive: 14.6 µM [cytotoxic, single point].

For NC(C(=O)O)C1ON=C(Cl)C1O (centres undefined), which Potency is on record?
Its Potency is active: 1.64 µM.

Which Potency does the source give for O=C(Nc1cc([N+](=O)[O-])ccc1F)c1ccc2ccccc2c1 here?
Its Potency is “inactive”.

For CC1CN(C(=O)C(C)N2CCN(c3ccccc3Cl)CC2)CC(C)O1 (centres undefined), which Potency is on record?
Its Potency is inconclusive: 20.6 µM [cytotoxic, single point].

Which Potency does the source give for Cc1ccc2c(c1)C1NC(=S)NC(C)(O2)C1C(=O)Nc1ccc(Cl)cc1 (centres undefined) here?
Its Potency is inconclusive: 29.1 µM [cytotoxic, single point].

With c1ccc2sc(-c3ccc4c(c3)OCO4)nc2c1 as the compound, how does the Potency read?
The Potency was inconclusive: 14.6 µM [cytotoxic, partial curve].

With COc1cc(NC(=O)[C@@H]2CCCN(S(=O)(=O)c3cccc4cccnc34)C2)cc(OC)c1OC as the compound, how does the Potency read?
The Potency was “inactive”.

Which Potency does the source give for CC(=O)c1ccc(S(=O)(=O)N2CCC(c3nc4ccccc4[nH]3)CC2)cc1 here?
The Potency was inconclusive: 23.1 µM [cytotoxic, single point].

For CCOC(=O)c1ccc(NC(=O)C2CCN(S(=O)(=O)c3ccccc3)CC2)cc1, which Potency is on record?
The Potency was “inactive”.

With Cc1ccc(SCC(=O)NNC(=O)c2cncc(Br)c2)cc1 as the compound, how does the Potency read?
Its Potency is “inactive”.

Which Potency does the source give for CC(C)(C)OC(=O)N1CCC(c2c(C(=O)Nc3ccc4c(c3)OCCO4)cnn2-c2ccccc2)CC1 here?
The Potency was “inactive”.

Which Potency does the source give for COc1cccc(CNC(=O)C(Cc2ccccc2)n2cccc2)c1 (centres undefined) here?
The Potency was “inactive”.

With Cc1cc(N2C(=O)C(O)=C(C(=O)c3ccc(C)o3)C2c2cccs2)no1 (centres undefined) as the compound, how does the Potency read?
Its Potency is active: 5.17 µM.
